{"sequences": {"note": "Chains of the proteins cited; added tags and fusions are not shown. Lines headed by an entry give the natural chain unless they say otherwise; changes in a name come on top.", "UniProt P28482": "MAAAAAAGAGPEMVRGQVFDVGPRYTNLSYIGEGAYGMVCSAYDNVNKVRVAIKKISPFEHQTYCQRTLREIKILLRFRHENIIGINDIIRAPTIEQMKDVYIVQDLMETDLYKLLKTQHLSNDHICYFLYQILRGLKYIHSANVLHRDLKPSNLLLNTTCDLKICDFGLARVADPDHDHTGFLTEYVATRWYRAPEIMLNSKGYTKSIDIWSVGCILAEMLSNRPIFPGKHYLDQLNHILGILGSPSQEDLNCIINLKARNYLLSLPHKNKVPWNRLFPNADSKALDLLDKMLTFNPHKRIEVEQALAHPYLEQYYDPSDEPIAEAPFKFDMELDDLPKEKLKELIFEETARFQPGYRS"}, "source": "paper PMC9319741", "about": "“A Novel ERK2 Degrader Z734 Induces Apoptosis of MCF–7 Cells via the HERC3/p53 Signaling Pathway” (Molecules, 2022)", "molecules": {"B1": {"name": "Myc–HERC3 (protein, UniProt Q15034-1 1-1050)", "chain": "MLCWGYWSLGQPGISTNLQGIVAEPQVCGFISDRSVKEVACGGNHSVFLLEDGEVYTCGLNTKGQLGHEREGNKPEQIGALADQHIIHVACGESHSLALSDRGQLFSWGAGSDGQLGLMTTEDSVAVPRLIQKLNQQTILQVSCGNWHCLALAADGQFFTWGKNSHGQLGLGKEFPSQASPQRVRSLEGIPLAQVAAGGAHSFALSLSGAVFGWGMNNAGQLGLSDEKDRESPCHVKLLRTQKVVYISCGEEHTAVLTKSGGVFTFGAGSCGQLGHDSMNDEVNPRRVLELMGSEVTQIACGRQHTLAFVPSSGLIYAFGCGARGQLGTGHTCNVKCPSPVKGYWAAHSGQLSARADRFKYHIVKQIFSGGDQTFVLCSKYENYSPAVDFRTMNQAHYTSLINDETIAVWRQKLSEHNNANTINGVVQILSSAACWNGSFLEKKIDEHFKTSPKIPGIDLNSTRVLFEKLMNSQHSMILEQILNSFESCLIPQLSSSPPDVEAMRIYLILPEFPLLQDSKYYITLTIPLAMAILRLDTNPSKVLDNWWSQVCPKYFMKLVNLYKGAVLYLLRGRKTFLIPVLFNNYITAALKLLEKLYKVNLKVKHVEYDTFYIPEISNLVDIQEDYLMWFLHQAGMKARPSIIQDTVTLCSYPFIFDAQAKTKMLQTDAELQMQVAVNGANLQNVFMLLTLEPLLARSPFLVLHVRRNNLVGDALRELSIHSDIDLKKPLKVIFDGEEAVDAGGVTKEFFLLLLKELLNPIYGMFTYYQDSNLLWFSDTCFVEHNWFHLIGITCGLAIYNSTVVDLHFPLALYKKLLNVKPGLEDLKELSPTEGRSLQELLDYPGEDVEETFCLNFTICRESYGVIEQKKLIPGGDNVTVCKDNRQEFVDAYVNYVFQISVHEWYTAFSSGFLKVCGGKVLELFQPSELRAMMVGNSNYNWEELEETAIYKGDYSATHPTVKLFWETFHEFPLEKKKKFLLFLTGSDRIPIYGMASLQIVIQSTASGEEYLPVAHTCYNLLDLPKYSSKEILSARLTQALDNYEGFSLA"}}, "key": {"Myc–HERC3": {"biological_target": "T1, Myc–HERC3 (UniProt Q15034)", "T1 sequence": "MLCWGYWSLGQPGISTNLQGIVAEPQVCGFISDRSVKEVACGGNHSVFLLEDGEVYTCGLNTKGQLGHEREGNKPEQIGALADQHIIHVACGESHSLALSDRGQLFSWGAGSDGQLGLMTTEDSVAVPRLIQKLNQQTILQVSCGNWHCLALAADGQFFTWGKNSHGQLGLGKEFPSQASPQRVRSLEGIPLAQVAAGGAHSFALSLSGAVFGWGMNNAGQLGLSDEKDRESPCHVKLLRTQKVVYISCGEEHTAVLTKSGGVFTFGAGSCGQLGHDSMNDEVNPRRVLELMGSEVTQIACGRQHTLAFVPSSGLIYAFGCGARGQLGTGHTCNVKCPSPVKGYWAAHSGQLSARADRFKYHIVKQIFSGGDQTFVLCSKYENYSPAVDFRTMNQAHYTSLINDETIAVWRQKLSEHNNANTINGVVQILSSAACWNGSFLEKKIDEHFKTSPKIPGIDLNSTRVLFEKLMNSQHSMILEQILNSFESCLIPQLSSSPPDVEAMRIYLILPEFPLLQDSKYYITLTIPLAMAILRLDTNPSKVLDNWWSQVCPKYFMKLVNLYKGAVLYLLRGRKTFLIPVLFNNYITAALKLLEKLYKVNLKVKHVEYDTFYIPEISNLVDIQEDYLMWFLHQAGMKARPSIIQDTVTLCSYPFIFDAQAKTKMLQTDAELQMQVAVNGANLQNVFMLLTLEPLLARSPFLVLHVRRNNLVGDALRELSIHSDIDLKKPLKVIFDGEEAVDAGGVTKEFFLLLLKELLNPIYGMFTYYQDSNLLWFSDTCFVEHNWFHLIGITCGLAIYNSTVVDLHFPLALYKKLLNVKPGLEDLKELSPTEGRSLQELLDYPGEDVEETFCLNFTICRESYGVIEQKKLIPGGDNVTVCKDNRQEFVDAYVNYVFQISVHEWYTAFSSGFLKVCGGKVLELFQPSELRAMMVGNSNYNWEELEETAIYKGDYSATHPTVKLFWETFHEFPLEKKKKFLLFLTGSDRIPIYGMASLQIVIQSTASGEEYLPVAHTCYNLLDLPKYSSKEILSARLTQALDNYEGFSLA", "assay": "co-IP; MCF–7 cells co-transfected with Flag–ERK2 and Myc–HERC3 for 24 h; total lysates immunoprecipitated with anti–Myc or anti–Flag and protein A/G beads overnight at 4 °C; Western blot"}, "[1]": {"biological_target": "T2, endogenous HERC3 (human (endogenous in MCF–7)) (UniProt Q15034)", "T2 sequence": "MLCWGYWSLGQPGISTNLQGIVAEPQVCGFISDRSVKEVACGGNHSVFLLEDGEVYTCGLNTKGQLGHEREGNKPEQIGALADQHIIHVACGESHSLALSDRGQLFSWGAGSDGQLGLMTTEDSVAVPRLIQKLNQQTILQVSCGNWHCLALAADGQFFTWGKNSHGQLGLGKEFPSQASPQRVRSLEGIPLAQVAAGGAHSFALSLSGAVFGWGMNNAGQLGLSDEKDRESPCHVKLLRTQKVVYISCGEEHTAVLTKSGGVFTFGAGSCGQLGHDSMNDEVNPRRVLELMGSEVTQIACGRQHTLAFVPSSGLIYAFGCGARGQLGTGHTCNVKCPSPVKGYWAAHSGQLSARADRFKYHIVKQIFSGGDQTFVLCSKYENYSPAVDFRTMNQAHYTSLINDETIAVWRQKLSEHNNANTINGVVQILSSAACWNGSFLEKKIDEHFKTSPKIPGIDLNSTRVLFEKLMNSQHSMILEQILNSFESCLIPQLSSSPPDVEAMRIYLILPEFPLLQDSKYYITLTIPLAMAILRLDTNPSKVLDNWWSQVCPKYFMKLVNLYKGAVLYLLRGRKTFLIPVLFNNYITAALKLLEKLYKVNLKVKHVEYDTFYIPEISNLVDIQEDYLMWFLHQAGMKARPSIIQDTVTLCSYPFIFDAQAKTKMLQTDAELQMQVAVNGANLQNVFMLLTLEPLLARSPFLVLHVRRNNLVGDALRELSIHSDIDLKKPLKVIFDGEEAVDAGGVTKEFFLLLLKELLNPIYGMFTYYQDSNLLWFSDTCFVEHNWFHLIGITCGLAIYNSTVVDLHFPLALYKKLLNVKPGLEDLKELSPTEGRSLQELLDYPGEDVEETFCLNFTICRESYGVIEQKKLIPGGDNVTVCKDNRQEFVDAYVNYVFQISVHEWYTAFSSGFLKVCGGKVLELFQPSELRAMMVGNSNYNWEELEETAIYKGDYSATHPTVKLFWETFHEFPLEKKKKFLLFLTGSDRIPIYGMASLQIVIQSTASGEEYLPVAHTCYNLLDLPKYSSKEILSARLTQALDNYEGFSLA", "assay": "co-IP; endogenous proteins of MCF–7 cells; IgG as negative control; antibody and protein A/G beads overnight at 4 °C; Western blot"}, "[2]": {"biological_target": "T2, endogenous HERC3 (human (endogenous in MCF–7))", "assay": "co-IP; MCF–7 cells; IgG as negative control; Western blot"}, "[3]": {"biological_target": "T3, purified GST–HERC3 protein (UniProt Q15034)", "T3 sequence": "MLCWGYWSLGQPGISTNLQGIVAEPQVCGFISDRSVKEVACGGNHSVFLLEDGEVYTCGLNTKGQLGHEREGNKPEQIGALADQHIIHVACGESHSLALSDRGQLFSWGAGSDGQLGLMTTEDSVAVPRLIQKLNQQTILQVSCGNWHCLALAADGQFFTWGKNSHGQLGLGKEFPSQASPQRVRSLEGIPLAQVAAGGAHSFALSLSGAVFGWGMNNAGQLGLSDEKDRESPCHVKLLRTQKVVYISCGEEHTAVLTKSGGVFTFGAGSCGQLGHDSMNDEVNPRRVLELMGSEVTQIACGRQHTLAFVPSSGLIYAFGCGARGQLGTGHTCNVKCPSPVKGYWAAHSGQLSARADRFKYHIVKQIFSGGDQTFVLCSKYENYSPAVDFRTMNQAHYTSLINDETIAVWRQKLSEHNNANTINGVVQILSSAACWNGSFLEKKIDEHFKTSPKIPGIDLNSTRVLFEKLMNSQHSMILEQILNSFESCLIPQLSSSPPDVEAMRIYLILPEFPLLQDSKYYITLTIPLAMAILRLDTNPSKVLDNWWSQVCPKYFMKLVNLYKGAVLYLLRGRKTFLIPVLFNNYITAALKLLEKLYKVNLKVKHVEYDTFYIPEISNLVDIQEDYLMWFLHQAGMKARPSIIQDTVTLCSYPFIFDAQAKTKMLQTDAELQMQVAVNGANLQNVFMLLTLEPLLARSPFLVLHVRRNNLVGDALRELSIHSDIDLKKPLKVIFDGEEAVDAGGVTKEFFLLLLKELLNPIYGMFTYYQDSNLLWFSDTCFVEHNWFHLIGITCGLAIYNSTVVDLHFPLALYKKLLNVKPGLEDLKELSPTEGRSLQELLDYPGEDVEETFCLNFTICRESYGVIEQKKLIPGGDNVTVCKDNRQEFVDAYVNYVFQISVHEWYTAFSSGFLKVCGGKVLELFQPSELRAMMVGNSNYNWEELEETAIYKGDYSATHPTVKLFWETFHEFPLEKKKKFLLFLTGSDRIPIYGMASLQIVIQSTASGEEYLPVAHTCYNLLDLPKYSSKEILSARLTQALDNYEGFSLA", "assay": "pull-down; purified GST–HERC3 mixed with purified Flag–ERK2 in vitro; GST pulldown; both purified"}, "Flag–ERK2": {"biological_target": "Flag–ERK2 (UniProt P28482)", "assay": "co-IP; MCF–7 cells co-transfected with Flag–ERK2 and Myc–HERC3 for 24 h; total lysates immunoprecipitated with anti–Myc or anti–Flag and protein A/G beads overnight at 4 °C; Western blot"}}, "note": "These are yes or no findings as the source states them, for the method shown. For some assays here: In cells and extracts the contact can be indirect. Some results given as binding are weak or reduced against the parent protein; the word gives no strength. For some assays here: Tags and fused reporters may be left off the sequences shown."}
{"molecule": "Flag–ERK2 (from UniProt P28482-1 1-360)", "values": [{"measurement": "binding", "setting": "Myc–HERC3", "value": "binds"}]}
{"molecule": "endogenous ERK2 (from UniProt P28482-1 1-360)", "values": [{"measurement": "binding", "setting": "[1]", "value": "binds"}]}
{"molecule": "p53 (from UniProt P04637 1-393)", "values": [{"measurement": "binding", "setting": "[2]", "value": "binds"}]}
{"molecule": "purified Flag–ERK2 protein (from UniProt P28482-1 1-360)", "values": [{"measurement": "binding", "setting": "[3]", "value": "binds"}]}
{"molecule": "B1", "values": [{"measurement": "binding", "setting": "Flag–ERK2", "value": "binds"}]}
